Values from PubChem BioAssay AID1259308 (NCATS, 2017).

Screen: 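Knock-downs that increase output of a recombinant reporter protein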 (primary screen)
Cell system: human HEK293 embryonic kidney cells stably expressing firefly luciferase (HEK-CMV-Luc2-Hygro)
Reagents: single siRNA against human genes, 0.8 pmol siRNA per well
Time to read-out: 72 h
Measured: 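Luciferase light (ONE-Glo) measured on one replicate plate set and viability (CellTiter-Glo) on the other, scaled to a negative control siRNA, with robust z-scores and luciferase per cell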
Reading the numbers: total luciferase, z-score and total luciferase, % of control: higher = more reporter protein produced
Rule for the call: 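Active when the median/MAD z-score for overall luciferase is greater than 3; a gene was taken forward for validation with new siRNAs if at least two of its three siRNAs passed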
Calls: active = raised luciferase; inactive = no rise
Shown is one part, drawn at random, of about 59,000 reagents. In the full data, about 1,510 (2.6%) were called active. 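Calls use total luciferase alone and ignore viability, so some active siRNAs may act by altering cell number.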 Further read-outs or replicates are left out here. Reagent sequences are not shown.

target | PubChem SID | total luciferase, z-score | total luciferase, % of control | outcome
PRXL2A | SID160752081 | 0.528 | 92.4 | inactive
PRXL2A | SID160752082 | -0.31 | 75.7 | inactive
PRXL2A | SID160752083 | 0.883 | 99.5 | inactive
SPANXN5 | SID160733468 | -0.464 | 72.6 | inactive
SPANXN5 | SID160768275 | -0.11 | 79.7 | inactive
SPANXN5 | SID160768277 | 0.239 | 86.6 | inactive
RBM44 | SID160765409 | -0.621 | 69.5 | inactive
RBM44 | SID160765410 | -0.573 | 70.5 | inactive
RBM44 | SID160765411 | -1.03 | 61.4 | inactive
RAD9A | SID160715581 | 1.04 | 103 | inactive
RAD9A | SID160715583 | 0.864 | 99.1 | inactive
RAD9A | SID160731639 | -0.357 | 74.8 | inactive
COQ5 | SID160752023 | -1.67 | 48.6 | inactive
COQ5 | SID160752024 | -0.889 | 64.2 | inactive
COQ5 | SID160752025 | -0.301 | 75.9 | inactive
MORF4L2 | SID160722690 | -0.68 | 68.4 | inactive
MORF4L2 | SID160722692 | -0.463 | 72.7 | inactive
MORF4L2 | SID160732214 | 1.81 | 118 | inactive
VCAM1 | SID160718718 | -0.204 | 77.8 | inactive
VCAM1 | SID160718720 | 3.31 | 148 | active
VCAM1 | SID160718721 | -0.339 | 75.1 | inactive
ATP5F1B | SID160721856 | -0.86 | 64.8 | inactive
ATP5F1B | SID160721866 | -0.955 | 62.9 | inactive
ATP5F1B | SID160721877 | -0.983 | 62.3 | inactive
COMMD8 | SID160742579 | -3.14 | 19.5 | inactive
COMMD8 | SID160742580 | 0.298 | 87.8 | inactive
COMMD8 | SID160742581 | -0.0565 | 80.8 | inactive
CADM4 | SID160730750 | -1.1 | 60.1 | inactive
CADM4 | SID160760746 | -0.851 | 65 | inactive
CADM4 | SID160760747 | -0.941 | 63.2 | inactive
UBQLN3 | SID160739642 | 0.472 | 91.3 | inactive
UBQLN3 | SID160739643 | -0.347 | 75 | inactive
UBQLN3 | SID160739644 | 0.28 | 87.4 | inactive

Next part (4 carried over from the part before).
target | PubChem SID | total luciferase, z-score | total luciferase, % of control | outcome
CADM4 | SID160760747 | -0.941 | 63.2 | inactive
UBQLN3 | SID160739642 | 0.472 | 91.3 | inactive
UBQLN3 | SID160739643 | -0.347 | 75 | inactive
UBQLN3 | SID160739644 | 0.28 | 87.4 | inactive
STPG2 | SID160763646 | -0.519 | 71.6 | inactive
STPG2 | SID160763647 | 0.651 | 94.8 | inactive
STPG2 | SID160763648 | 0.0731 | 83.3 | inactive
TMEM176B | SID160733017 | -0.176 | 78.4 | inactive
TMEM176B | SID160738871 | 1.33 | 108 | inactive
TMEM176B | SID160738872 | -2.56 | 30.9 | inactive
CCNB2 | SID160721553 | 0.255 | 87 | inactive
CCNB2 | SID160721554 | -1.06 | 60.8 | inactive
CCNB2 | SID160721555 | 2.05 | 123 | inactive
OR7C2 | SID160738125 | -1.52 | 51.7 | inactive
OR7C2 | SID160738127 | -0.168 | 78.5 | inactive
OR7C2 | SID160738128 | 1.76 | 117 | inactive
GDAP2 | SID160742275 | 0.65 | 94.8 | inactive
GDAP2 | SID160742276 | -0.411 | 73.7 | inactive
GDAP2 | SID160742277 | 1.91 | 120 | inactive
ADGRG3 | SID160761852 | -0.762 | 66.7 | inactive
ADGRG3 | SID160761853 | -0.5 | 71.9 | inactive
ADGRG3 | SID160761856 | -0.811 | 65.8 | inactive
FMO2 | SID160766702 | 0.986 | 101 | inactive
FMO2 | SID160766712 | -0.562 | 70.7 | inactive
FMO2 | SID160766722 | 1.54 | 113 | inactive
LIMD1-AS1 | SID160725762 | 0.623 | 94.3 | inactive
LIMD1-AS1 | SID160725763 | -0.0266 | 81.4 | inactive
LIMD1-AS1 | SID160725764 | 0.279 | 87.4 | inactive
